Data published in PMC4702109, “Osmotic stress induces the phosphorylation of WNK4 Ser575 via the p38MAPK-MK pathway” (Scientific Reports, 2016).
No constants are given. Whether binding was seen depends on the method and setting. For some of these results: Binding seen in cells or lysates may run through a third protein. Some entries that bind do so weakly or less than the wild type. For some of these results: Tags and fused reporters may be left off the sequences shown. Each block holds one molecule with its values, some of them ahead of it.

Chains of the proteins cited; added tags and fusions are not shown. Lines headed by an entry give the natural chain unless they say otherwise; changes in a name come on top. A line that says so, or that is headed by a name, gives the form on record, which may keep a tag or linker.
UniProt P49138: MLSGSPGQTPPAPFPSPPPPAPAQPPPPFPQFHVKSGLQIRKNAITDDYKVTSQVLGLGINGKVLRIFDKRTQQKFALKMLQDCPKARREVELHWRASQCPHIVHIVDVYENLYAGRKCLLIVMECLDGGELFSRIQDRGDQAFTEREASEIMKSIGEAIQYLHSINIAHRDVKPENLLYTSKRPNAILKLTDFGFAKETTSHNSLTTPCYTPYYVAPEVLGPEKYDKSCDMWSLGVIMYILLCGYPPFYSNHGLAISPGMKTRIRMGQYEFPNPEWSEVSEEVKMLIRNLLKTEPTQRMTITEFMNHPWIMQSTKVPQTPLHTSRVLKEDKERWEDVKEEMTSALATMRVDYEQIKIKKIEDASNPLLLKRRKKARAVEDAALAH
UniProt Q3UMW7: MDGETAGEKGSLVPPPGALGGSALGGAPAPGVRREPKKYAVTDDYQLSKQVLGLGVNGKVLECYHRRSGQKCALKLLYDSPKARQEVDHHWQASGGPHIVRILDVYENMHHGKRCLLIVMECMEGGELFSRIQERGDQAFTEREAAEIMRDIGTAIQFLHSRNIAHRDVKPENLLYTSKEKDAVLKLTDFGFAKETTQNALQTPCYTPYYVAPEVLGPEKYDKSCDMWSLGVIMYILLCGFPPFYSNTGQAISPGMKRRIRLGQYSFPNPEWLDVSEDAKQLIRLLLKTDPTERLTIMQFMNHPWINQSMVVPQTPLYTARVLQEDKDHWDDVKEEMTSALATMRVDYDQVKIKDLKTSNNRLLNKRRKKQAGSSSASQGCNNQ
UniProt O54992: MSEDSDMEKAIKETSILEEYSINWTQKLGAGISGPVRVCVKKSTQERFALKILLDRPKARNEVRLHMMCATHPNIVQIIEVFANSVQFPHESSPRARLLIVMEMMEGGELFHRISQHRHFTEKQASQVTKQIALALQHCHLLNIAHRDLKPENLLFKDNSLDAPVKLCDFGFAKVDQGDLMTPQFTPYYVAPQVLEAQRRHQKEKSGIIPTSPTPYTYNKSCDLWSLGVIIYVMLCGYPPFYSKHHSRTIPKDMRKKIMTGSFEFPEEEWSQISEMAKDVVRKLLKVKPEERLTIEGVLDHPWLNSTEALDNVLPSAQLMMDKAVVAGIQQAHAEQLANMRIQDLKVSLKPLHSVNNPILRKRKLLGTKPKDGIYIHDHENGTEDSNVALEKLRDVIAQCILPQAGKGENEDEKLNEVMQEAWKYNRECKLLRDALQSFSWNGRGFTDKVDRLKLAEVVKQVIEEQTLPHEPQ
UniProt Q6ZN16: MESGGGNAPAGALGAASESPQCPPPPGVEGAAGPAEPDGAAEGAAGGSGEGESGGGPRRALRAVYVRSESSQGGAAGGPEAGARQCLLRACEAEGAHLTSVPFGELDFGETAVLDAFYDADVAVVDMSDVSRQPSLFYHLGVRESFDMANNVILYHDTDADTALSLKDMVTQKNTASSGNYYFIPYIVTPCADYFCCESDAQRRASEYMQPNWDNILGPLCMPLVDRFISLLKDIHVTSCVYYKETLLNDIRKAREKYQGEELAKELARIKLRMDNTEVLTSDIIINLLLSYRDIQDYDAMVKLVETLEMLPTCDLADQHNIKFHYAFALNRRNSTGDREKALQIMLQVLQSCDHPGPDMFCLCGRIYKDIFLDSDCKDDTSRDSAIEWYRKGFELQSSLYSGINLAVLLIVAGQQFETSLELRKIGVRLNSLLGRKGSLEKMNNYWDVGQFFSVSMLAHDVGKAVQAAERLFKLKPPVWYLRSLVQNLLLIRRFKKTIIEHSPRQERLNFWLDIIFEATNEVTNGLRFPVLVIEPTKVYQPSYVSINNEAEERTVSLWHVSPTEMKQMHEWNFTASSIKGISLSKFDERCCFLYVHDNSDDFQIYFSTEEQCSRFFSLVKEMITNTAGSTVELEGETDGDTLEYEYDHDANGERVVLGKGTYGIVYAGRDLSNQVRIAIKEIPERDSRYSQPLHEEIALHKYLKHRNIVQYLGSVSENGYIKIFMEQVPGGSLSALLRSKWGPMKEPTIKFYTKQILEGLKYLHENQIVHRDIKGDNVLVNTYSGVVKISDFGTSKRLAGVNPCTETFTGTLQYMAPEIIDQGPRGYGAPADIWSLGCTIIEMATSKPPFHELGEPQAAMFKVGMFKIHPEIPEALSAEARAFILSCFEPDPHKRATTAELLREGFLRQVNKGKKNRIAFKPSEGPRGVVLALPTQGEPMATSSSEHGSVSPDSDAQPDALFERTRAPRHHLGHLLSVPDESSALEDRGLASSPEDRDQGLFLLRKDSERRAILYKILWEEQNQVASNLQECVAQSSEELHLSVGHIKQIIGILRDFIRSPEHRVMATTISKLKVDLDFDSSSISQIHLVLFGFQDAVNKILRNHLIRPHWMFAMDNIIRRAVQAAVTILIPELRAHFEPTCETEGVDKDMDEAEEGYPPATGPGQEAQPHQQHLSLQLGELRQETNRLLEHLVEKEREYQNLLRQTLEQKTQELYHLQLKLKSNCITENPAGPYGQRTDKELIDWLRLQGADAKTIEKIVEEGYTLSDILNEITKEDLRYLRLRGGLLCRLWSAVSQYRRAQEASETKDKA
human ASK3-KM fused to the GAL4 DNA-binding domain (Q6ZN16, form named): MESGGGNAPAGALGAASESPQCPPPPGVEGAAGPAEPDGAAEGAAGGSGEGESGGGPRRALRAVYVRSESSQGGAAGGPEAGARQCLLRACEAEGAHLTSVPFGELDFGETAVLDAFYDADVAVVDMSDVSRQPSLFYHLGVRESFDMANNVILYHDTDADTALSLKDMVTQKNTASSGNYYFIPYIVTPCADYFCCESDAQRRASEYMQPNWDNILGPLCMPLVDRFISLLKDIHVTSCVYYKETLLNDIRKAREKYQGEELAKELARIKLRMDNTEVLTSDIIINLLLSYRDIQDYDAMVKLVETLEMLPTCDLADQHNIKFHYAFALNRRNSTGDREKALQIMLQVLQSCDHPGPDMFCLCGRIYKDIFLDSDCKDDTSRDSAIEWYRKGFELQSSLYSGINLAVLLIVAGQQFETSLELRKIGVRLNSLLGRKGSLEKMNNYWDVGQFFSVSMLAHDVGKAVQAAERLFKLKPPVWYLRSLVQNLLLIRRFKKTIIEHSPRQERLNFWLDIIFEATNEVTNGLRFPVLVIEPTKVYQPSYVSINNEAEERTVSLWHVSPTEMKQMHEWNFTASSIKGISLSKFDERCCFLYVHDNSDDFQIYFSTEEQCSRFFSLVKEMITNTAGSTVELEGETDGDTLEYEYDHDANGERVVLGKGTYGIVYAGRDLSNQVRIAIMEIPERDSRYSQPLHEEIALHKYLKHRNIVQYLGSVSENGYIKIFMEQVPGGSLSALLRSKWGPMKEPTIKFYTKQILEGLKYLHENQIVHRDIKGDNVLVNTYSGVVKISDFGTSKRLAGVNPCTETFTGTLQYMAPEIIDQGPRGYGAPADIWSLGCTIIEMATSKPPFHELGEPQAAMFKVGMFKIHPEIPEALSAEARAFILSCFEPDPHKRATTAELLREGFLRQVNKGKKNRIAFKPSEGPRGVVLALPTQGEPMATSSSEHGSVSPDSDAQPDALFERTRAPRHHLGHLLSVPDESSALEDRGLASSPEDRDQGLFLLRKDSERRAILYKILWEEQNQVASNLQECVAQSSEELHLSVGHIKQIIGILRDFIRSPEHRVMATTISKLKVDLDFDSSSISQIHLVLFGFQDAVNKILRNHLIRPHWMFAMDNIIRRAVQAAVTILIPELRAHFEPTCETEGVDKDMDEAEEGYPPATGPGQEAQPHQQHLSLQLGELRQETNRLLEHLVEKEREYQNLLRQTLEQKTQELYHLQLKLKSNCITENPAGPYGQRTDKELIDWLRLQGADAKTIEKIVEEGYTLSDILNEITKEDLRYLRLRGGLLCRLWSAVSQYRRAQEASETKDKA

Experiments:
[1] = target: FLAG-tagged mouse MK2 (mouse) (UniProt P49138); experiment: co-IP; mIMCD3 cells co-transfected, lysed 24 h after transfection; FLAG-tagged MK kinases immunoprecipitated with anti-FLAG antibody beads
[2] = target: FLAG-tagged mouse MK3 (mouse) (UniProt Q3UMW7); experiment: as above
[3] = target: FLAG-tagged mouse MK5 (mouse) (UniProt O54992); experiment: as above
[4] = target: FLAG-tagged human ASK3 kinase-inactive mutant (human) (UniProt Q6ZN16); experiment: co-IP; HEK293A cells co-transfected, lysed 48 h after transfection; anti-FLAG antibody beads, immunoblot for co-precipitated WNK4; osmotic stress did not significantly affect the interaction (Supplementary Fig. S1)
[5] = target: FLAG-tagged human ASK3 wild type (human) (UniProt Q6ZN16); experiment: as above
[6] = target: human ASK3-KM fused to the GAL4 DNA-binding domain (human) (UniProt Q6ZN16); experiment: two-hybrid; GAL4 system; bait ASK3-K681M in pGBKT7 (AH109) mated with human kidney cDNA library prey in pACT2 (Y187); growth on selection medium (QDO: without adenine, His, Leu, Trp)
[7] = target: T1, WNK4 (557–580)-E562K peptide (human) (UniProt Q96J92); experiment: pull-down; FLAG-tagged synthetic WNK4 (557–580) peptides (1 μg) held on anti-FLAG antibody beads; GST-hKLHL3 (290–587) incubated 6 hours, washed with IP lysis buffer; immunoblot; two amounts of GST-KLHL3 (3-fold apart); both purified
T1 sequence (peptide): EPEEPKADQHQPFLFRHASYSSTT

Molecule: HA-tagged human WNK4 (in HEK293A cells) (from UniProt Q96J92 1-1243)
binding [4]: binds | binding [5]: binds

B1: GST-hKLHL3 (290–587) (domain or fragment, UniProt Q9UH77 290-587)
chain: RTKPRTPVSLPKVMIVVGGQAPKAIRSVECYDFEEDRWDQIAELPSRRCRAGVVFMAGHVYAVGGFNGSLRVRTVDVYDGVKDQWTSIASMQERRSTLGAAVLNDLLYAVGGFDGSTGLASVEAYSYKTNEWFFVAPMNTRRSSVGVGVVEGKLYAVGGYDGASRQCLSTVEQYNPATNEWIYVADMSTRRSGAGVGVLSGQLYATGGHDGPLVRKSVEVYDPGTNTWKQVADMNMCRRNAGVCAVNGLLYVVGGDDGSCNLASVEYYNPVTDKWTLLPTNMSTGRSYAGVAVIHKSL
binding [7]: no binding

The remaining lines, values ahead:

binding [1]: binds | binding [2]: binds | binding [3]: binds
Molecule: HA-tagged human WNK4 (in mIMCD3 cells) (from UniProt Q96J92 1-1243)

binding [6]: binds
Molecule: human WNK4 (850–1007) fused to the GAL4 transcriptional activation domain (from UniProt Q96J92 850-1007) (domain or fragment)
